Assay results reported in article PMC4043117.
Results are given in words; binding and its absence hold for the method and conditions named. Binding seen in cells or lysates may run through a third protein. For part of these data: Binding can be weak; no strength is given. Tags and fused reporters may be left off the sequences shown. Blank lines part the entries; values can stand above or below the molecule they belong to.

By UniProt entry, the sequences of proteins in these tests, tags left out. Where a name states a change or a piece, a line headed by the entry shows the natural chain unless it says otherwise.
UniProt O42995: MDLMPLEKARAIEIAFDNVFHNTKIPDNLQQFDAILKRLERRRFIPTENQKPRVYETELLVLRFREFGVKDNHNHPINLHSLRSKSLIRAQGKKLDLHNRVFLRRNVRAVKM
UniProt O94682: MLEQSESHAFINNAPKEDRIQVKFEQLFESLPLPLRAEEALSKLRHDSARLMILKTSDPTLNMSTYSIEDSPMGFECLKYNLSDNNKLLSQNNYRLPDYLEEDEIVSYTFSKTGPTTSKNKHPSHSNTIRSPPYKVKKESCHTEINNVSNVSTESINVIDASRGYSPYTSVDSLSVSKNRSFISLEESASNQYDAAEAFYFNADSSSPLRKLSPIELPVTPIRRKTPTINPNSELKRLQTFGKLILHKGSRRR

Experiments:
GST-Mis18 (S. pombe) = molecular target: T1, GST-Mis18 (S. pombe) (UniProt Q9P802); experiment: pull-down; GST pulldown on glutathione agarose from lysates of E. coli co-expressing the two proteins; Coomassie-type stained gel
T1 sequence: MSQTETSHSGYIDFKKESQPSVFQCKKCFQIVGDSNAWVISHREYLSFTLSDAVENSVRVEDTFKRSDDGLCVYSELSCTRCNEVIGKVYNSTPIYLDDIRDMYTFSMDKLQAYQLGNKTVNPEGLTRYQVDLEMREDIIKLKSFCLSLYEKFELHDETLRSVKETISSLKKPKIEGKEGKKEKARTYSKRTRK

GST-Mis16 (S. pombe) = molecular target: T2, GST-Mis16 (S. pombe) (UniProt O94244); experiment: as above
T2 sequence: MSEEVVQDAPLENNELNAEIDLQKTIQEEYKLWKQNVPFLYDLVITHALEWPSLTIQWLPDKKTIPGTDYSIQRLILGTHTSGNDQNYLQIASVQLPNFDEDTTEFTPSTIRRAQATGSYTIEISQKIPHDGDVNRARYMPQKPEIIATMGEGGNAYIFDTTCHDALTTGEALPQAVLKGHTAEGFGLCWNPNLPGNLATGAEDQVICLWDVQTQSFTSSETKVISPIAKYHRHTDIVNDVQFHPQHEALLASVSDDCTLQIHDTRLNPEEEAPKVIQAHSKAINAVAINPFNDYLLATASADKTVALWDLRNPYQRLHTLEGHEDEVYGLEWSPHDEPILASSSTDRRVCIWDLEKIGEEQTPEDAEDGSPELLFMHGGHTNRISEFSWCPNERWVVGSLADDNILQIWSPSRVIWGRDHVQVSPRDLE

Eic1-GFP (S. pombe) = Eic1-GFP (S. pombe) (UniProt O42995); experiment: co-IP; 2 g pulverized S. pombe cells expressing the epitope-tagged proteins; anti-GFP, anti-Myc or anti-HA antibody on Protein G Dynabeads; western analysis
[1] = molecular target: Eic2-GFP (S. pombe), O94682; experiment: as above; conditions: remark: other sources report otherwise
Eic2-GFP (S. pombe) = Eic2-GFP (S. pombe) (UniProt O94682); experiment: as above
6xHis-Eic1 (S. pombe) = experiment: pull-down; His pulldown on Ni-NTA agarose from lysates of E. coli co-expressing the two proteins; Coomassie-type stained gel

B1: Cnl2-Myc (protein, UniProt O13952 1-188)
chain: MNMEEQILNDYLLSQGRLQSIISLEQWRQLFPQRYREDPLIERLYEYCTQQRQKRLAKLRANIHLESQVIGKSRIDRMLATNVEKLQTVSHASTLHDVEEFYTSHSAKPLDISEINERLSEAVQSAYTKLNEEKERCTQLTLKMNSQIASLSDFQWSKEPNVDESIHLVESLIESLEKAAPSAIEELD
binding (Eic1-GFP (S. pombe)): binds

B2: Mis16-Myc (protein, UniProt O94244 1-430)
chain: MSEEVVQDAPLENNELNAEIDLQKTIQEEYKLWKQNVPFLYDLVITHALEWPSLTIQWLPDKKTIPGTDYSIQRLILGTHTSGNDQNYLQIASVQLPNFDEDTTEFTPSTIRRAQATGSYTIEISQKIPHDGDVNRARYMPQKPEIIATMGEGGNAYIFDTTCHDALTTGEALPQAVLKGHTAEGFGLCWNPNLPGNLATGAEDQVICLWDVQTQSFTSSETKVISPIAKYHRHTDIVNDVQFHPQHEALLASVSDDCTLQIHDTRLNPEEEAPKVIQAHSKAINAVAINPFNDYLLATASADKTVALWDLRNPYQRLHTLEGHEDEVYGLEWSPHDEPILASSSTDRRVCIWDLEKIGEEQTPEDAEDGSPELLFMHGGHTNRISEFSWCPNERWVVGSLADDNILQIWSPSRVIWGRDHVQVSPRDLE
binding (Eic1-GFP (S. pombe)): binds

B3: Mis16-Myc, O94244 1-430 (protein)
chain: MSEEVVQDAPLENNELNAEIDLQKTIQEEYKLWKQNVPFLYDLVITHALEWPSLTIQWLPDKKTIPGTDYSIQRLILGTHTSGNDQNYLQIASVQLPNFDEDTTEFTPSTIRRAQATGSYTIEISQKIPHDGDVNRARYMPQKPEIIATMGEGGNAYIFDTTCHDALTTGEALPQAVLKGHTAEGFGLCWNPNLPGNLATGAEDQVICLWDVQTQSFTSSETKVISPIAKYHRHTDIVNDVQFHPQHEALLASVSDDCTLQIHDTRLNPEEEAPKVIQAHSKAINAVAINPFNDYLLATASADKTVALWDLRNPYQRLHTLEGHEDEVYGLEWSPHDEPILASSSTDRRVCIWDLEKIGEEQTPEDAEDGSPELLFMHGGHTNRISEFSWCPNERWVVGSLADDNILQIWSPSRVIWGRDHVQVSPRDLE
binding [1]: no binding

B5: Mis18-Myc (protein, UniProt Q9P802 1-194)
chain: MSQTETSHSGYIDFKKESQPSVFQCKKCFQIVGDSNAWVISHREYLSFTLSDAVENSVRVEDTFKRSDDGLCVYSELSCTRCNEVIGKVYNSTPIYLDDIRDMYTFSMDKLQAYQLGNKTVNPEGLTRYQVDLEMREDIIKLKSFCLSLYEKFELHDETLRSVKETISSLKKPKIEGKEGKKEKARTYSKRTRK
binding (Eic2-GFP (S. pombe)): binds | binding (Eic1-GFP (S. pombe)): binds

B6: GST-Mis18 (protein, UniProt Q9P802 1-194)
chain: MSQTETSHSGYIDFKKESQPSVFQCKKCFQIVGDSNAWVISHREYLSFTLSDAVENSVRVEDTFKRSDDGLCVYSELSCTRCNEVIGKVYNSTPIYLDDIRDMYTFSMDKLQAYQLGNKTVNPEGLTRYQVDLEMREDIIKLKSFCLSLYEKFELHDETLRSVKETISSLKKPKIEGKEGKKEKARTYSKRTRK
binding (6xHis-Eic1 (S. pombe)): binds

Further lines, results first:

binding (GST-Mis18 (S. pombe)): binds | binding (GST-Mis16 (S. pombe)): binds
Molecule: 6xHis-Eic1 (S. pombe)

binding (Eic1-GFP (S. pombe)): binds
B4: Fta7-Myc (protein, UniProt O74844 1-244)
chain: MEMKRRVRAVRRDQIQKRWRPLEDKQRQEIIIIFRTCSRLVLNTIKSETRKSLAEEWFMNILLKIEAPLRNLPVPRKRKESILFSQLLSSNMQLEQQLYSDLDHINVLQQELKVETARLENEQKSYEEMKQNMAINNSRLADLKSKLHPYLKKGLKISHDNFSDSNDFSFQKKLNTEDSNTSKTSTLDMYKEKLKPFTKTMQIHANKTVQLSQTIQKATLLLQRLNNTKNIGLNKSSKLKIKNI
